# Results reported in PubChem BioAssay AID1671190 (National Center for Advancing Translational Sciences (NCATS), 2021).
# Chains of the proteins cited; added tags and fusions are not shown. Lines headed by an entry give the natural chain unless they say otherwise; changes in a name come on top.
# UniProt P18054: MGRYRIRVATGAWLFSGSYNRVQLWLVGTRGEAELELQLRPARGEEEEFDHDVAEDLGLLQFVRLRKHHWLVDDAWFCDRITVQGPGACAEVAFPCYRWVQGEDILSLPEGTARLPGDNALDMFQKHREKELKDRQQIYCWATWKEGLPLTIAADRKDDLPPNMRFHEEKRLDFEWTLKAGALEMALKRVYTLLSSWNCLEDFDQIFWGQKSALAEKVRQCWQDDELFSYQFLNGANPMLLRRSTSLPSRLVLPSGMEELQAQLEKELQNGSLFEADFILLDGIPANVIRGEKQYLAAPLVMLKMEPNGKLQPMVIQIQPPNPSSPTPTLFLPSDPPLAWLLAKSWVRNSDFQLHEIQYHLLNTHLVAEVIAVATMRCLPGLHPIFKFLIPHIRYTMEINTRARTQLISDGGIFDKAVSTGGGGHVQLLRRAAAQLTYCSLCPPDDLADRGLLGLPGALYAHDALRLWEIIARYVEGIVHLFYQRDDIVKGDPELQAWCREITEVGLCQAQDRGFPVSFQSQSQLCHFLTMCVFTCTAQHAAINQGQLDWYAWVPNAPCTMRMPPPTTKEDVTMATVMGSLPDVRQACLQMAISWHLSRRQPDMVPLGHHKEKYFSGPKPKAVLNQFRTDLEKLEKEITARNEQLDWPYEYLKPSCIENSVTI
# Several values for one entry are separate records, joined by “and”; a condition that tells them apart may be missing. Equal entries are not always repeated. The whole screen tested about 580,000 compounds, of which about 6,100 (1.1%) were called active. This list was built around the results that the source calls inconclusive (neither active nor inactive); the mix of calls is not that of the screen. The call rests on the fitted dose curve; in most records, active means well fitted inhibition curve with a large enough effect; inconclusive means small, poorly fitted or top-dose-only effect, or another doubt; inactive means no such curve, though single readings can be large or run the other way. Potencies of inconclusive entries are doubtful fits and often do not repeat.
# Molecular target: Polyunsaturated fatty acid lipoxygenase ALOX12 (Homo sapiens) (UniProt P18054)
# Assay: Primary qHTS assay for inhibitors of human arachidonate 12S-lipoxygenase (ALOX12): Round 2
# Details: purified 12hLO, xylenol orange hydroperoxide absorbance; activity change, negative = inhibition: at 108 µM (top of the series) unless noted
# Text: Assay Provider: Theodore R. Holman Ph.D. University of California, Santa Cruz, California Human lipoxygenase 12hLO is a member of the closely related lipoxygenase family of enzymes which catalyze the site-specific oxidation of arachidonic acid to various hormone precursor molecules and as such is a candidate for drug development in a variety of disease areas, such as cancer and inflammation. Inhibition of 12hLO activity was screened by utilizing arachidonic acid as a substrate. The extent of hydroperoxide product formation was measured by a secondary chromogenic reaction in which xylenol orange (XO, Sigma-Aldrich, cat. number 39,818-7) reacts with the ferric ions produced from the reaction between the hydroperoxide and ferrous ions. The Fe (III)-XO complex is characterized with red-shifted absorbance at 560 nm. A purified preparation of human 12hLO was supplied by Dr. Holman laboratory, University of California, Santa Cruz.
# PROTOCOL TABLE SEQUENCE No. (e.g., 1, 2, 3, etc.); […] (e.g., Cells, Incubation, Reagent, etc.); VALUE; DESCRIPTION 1; Enzyme; 3 uL; 150 nM 12hLO enzyme solution dispensed in 1536-well Greiner black, clear bottom plates. 2; Compound; 23 nL; compounds and controls were added. 3; Incubate; 15 min; room temperature. 4; Substrate; 1 uL; 40 uM arachidonic acid (final concentration). 5; Incubate; 30 min; room temperature. 6; Reagent; 4 uL; Fe-XO solution was added to each well. 7; Incubation; 30 min; room temperature 8; Detector; absorbance; Read 1 at 405 nm absorbance using ViewLux (Perkin-Elmer) CCD imager. 9; Detector; absorbance; Read 2 at 573 nm absorbance using ViewLux (Perkin-Elmer) CCD imager. NOTES (numbers refer to sequence above) 1; 150 nM 12hLO (final concentration) in buffer solution (25 mM Hepes, 0.01% Triton X-100, pH 7.0) was dispensed in columns 1, 2, 5-48. Column 1 is neutral (100% activity). Buffer only was dispensed in columns 3 and 4 as no enzyme negative controls. The plates were covered with metal lids with gas-exchange holes. 2; Compounds were pin transferred via a Kalypsys Pin Tool (Wako USA) in column 5-48. Control compound was transferred in column 2, titration of nordihydroguaiaretic acid (NDGA, Sigma-Aldrich, N5023) with top concentration of 20 mM in DMSO then 1:3 dilution in duplicate. Dilution factor of 23 nL into 4 uL final assay volume. 3; Covered assay plates were incubated for 15 min at room temperature. 4; Substrate was added to start the reaction; 40 uM arachidonic acid (Sigma-Aldrich, St. Louis, MO) was dispensed throughout the plate. 6; Chromogenic detection reagent solution (divalent iron/xylenol orange, Fe-XO) was added to each well: 200 uM xylenol orange, 300 uM ferrous ammonium sulfate prepared freshly in 50 mM sulfuric acid. 8, 9; Two absorbance readouts were obtained at 405 nm and at 573 nm using a ViewLux high-throughput CCD plate imager (Perkin-Elmer). The 573 to 405 (Read 2 / Read 1) absorbance ratio was used to compute reaction progress.
# On the % scale 0 is the no-effect control and ±100 the full control effect; potency means the concentration at half of the fitted maximal effect.
SMILES,Potency,"activity change, negative = inhibition"
Cc1ccccc1NC(=O)Cn1c(=O)c2cccn2c2ccccc21,"inconclusive: 79.4 µM [inhibitor, single point]",–
Cc1nn(C)c(C)c1S(=O)(=O)N1CCC(C(=O)NC2CCCCCC2)CC1,"inconclusive: 56.2 µM [inhibitor, partial curve, poor fit]",–
O=C(NCCCN1CCOCC1)c1cc(-c2cccc(Br)c2)nc2ccccc12,"inconclusive: 2.51 µM [inhibitor, full curve, poor fit]",–
Cc1cc(C)cc(-n2ccn(Cc3ccc(F)cc3)c(=O)c2=O)c1,"inconclusive: 158 µM [inhibitor, partial curve, poor fit]",–
Cc1nc(-c2ccc(S(=O)(=O)Nc3ccc(Br)cc3Cl)s2)cs1,"inconclusive: 141 µM [inhibitor, single point]",–
CC(C)c1ccc(/C=N/NC(=O)c2ccccc2)cc1,inactive,–
Cc1cc(C)cc(N(C)CC(=O)NC(N)=O)c1,"inconclusive: 50.1 µM [inhibitor, single point]",–
COc1ccc(-n2cnc3c2NC(=O)CC3c2cc(OC)c3c(c2OC)OCO3)cc1 (configuration not stated),"inconclusive: 4.47 µM [inhibitor, full curve, poor fit]",–
CC1CCN(CCCNC(=O)CCc2nnc3n(CCc4ccccc4)c(=O)c4ccccc4n23)CC1,inactive,–
C=CCOC(=O)C1=C[C@@H](C2CCCCC2)C[C@@H](OCc2ccc(CO)cc2)O1,"inconclusive: 56.2 µM [inhibitor, partial curve, poor fit]",–
COc1cccc(-n2c(CCn3nc(C)c([N+](=O)[O-])c3C)n[nH]c2=S)c1,inactive,–
COc1cccc(/C=N/NC(=O)C(=O)NCc2cccnc2)c1O,inactive,–
O=C(CSCC(O)c1ccccc1)NC(=O)NCC(F)(F)F (configuration not stated),"inconclusive: 31.6 µM [inhibitor, partial curve, poor fit]",–
O=S(=O)(NCc1ccnc(N2CCOCC2)c1)c1ccc(Cl)cc1C(F)(F)F,inactive,–
COc1ccc(-c2nc(-c3c[nH]c(C(=O)N4CCCC4)c3)cs2)cc1,"inconclusive: 44.7 µM [inhibitor, partial curve, poor fit]",–
Cc1cccc(C)c1Nc1c(-c2ccc(O)cc2)nc2sccn12,active: 20 µM,–
COc1cc(NC(=O)c2nc3ccccc3nc2OC)cc(OC)c1,"inconclusive: 56.2 µM [inhibitor, partial curve, poor fit]",–
CCc1ccc(/C=C2/SC(=S)N(CCCC(=O)Nc3ccccc3C(=O)O)C2=O)cc1,–,inconclusive: -44.2% [inhibitor]
CCOc1cc(Br)c2cc(C(=O)O)[nH]c2c1OC,inactive,–
COCCNc1oc(-c2ccc(OC)cc2)nc1S(=O)(=O)c1ccc2c(c1)OCCO2,"inconclusive: 39.8 µM [inhibitor, partial curve, poor fit]",–
COC(=O)c1[nH]c2ccccc2c1NC(=O)c1ccccc1F,inactive,–
COc1ccccc1NC(=S)c1ccccc1,"inconclusive: 89.1 µM [inhibitor, partial curve, poor fit]",–
CCOC(=O)N1CCN(Cc2cc(=O)oc3c(C)cc(C)cc23)CC1,"inconclusive: 89.1 µM [inhibitor, partial curve, poor fit]",–

SMILES,Potency,"activity change, negative = inhibition"
CCCS(=O)(=O)N1CCN(c2cc3c(cc2[N+](=O)[O-])n(C)c(=O)n3C)CC1,"inconclusive: 100 µM [inhibitor, single point]",–
O=C(Nc1ccccc1)C1Cc2c(-c3ccc(Cl)cc3)ccnc2O1 (configuration not stated),"inconclusive: 100 µM [inhibitor, partial curve, poor fit]",–
COc1ccc(CN2CC3(COCC2=O)CN(c2ccccc2)C3)cc1F,"inconclusive: 100 µM [inhibitor, partial curve, poor fit]",–
CCCCn1nc(C(=O)Nc2ccc(F)c(F)c2)c2ccccc2c1=O,inactive,–
Cc1cc(OC2CN(Cc3cccc4ccccc34)C2)ccc1F,"inconclusive: 70.8 µM [inhibitor, partial curve]",–
COc1cccc2c1C(=O)c1c(O)c3c(c(O)c1C2=O)C[C@@](O)(C(=O)CO)C[C@@H]3O[C@H]1C[C@H](N)[C@H](O[C@@H]2CCCCO2)[C@H](C)O1,"inconclusive: 0.161 µM [inhibitor, full curve, poor fit]",–
O=C(COC(=O)c1ccccc1Cl)Nc1cccnc1Cl,"inconclusive: 89.1 µM [inhibitor, single point]",–
COc1cccc(NC(=S)NN=C2CCCCCC2)c1,"inconclusive: 50.1 µM [inhibitor, partial curve, poor fit]",–
O=C(CC(O)(c1ccccc1)c1ccccc1)Nc1ccccn1,"inconclusive: 63.1 µM [inhibitor, partial curve, poor fit]",–
CCSC(=Nc1ccccc1)N1CCOCC1,"inconclusive: 31.6 µM [inhibitor, full curve, poor fit]",–
CCCN(CC(=O)Nc1ccccc1C)C(=O)CSc1ccccc1C,inactive,–
CCOC(=O)c1ccc(NC(=O)c2nc(SCc3ccccc3F)ncc2Cl)cc1,inactive,–
O=C(NC1CC(=O)N(c2ccc(Cl)cc2)C1)c1ccc(S(=O)(=O)N2CCOCC2)cc1 (configuration not stated),inactive,–
NC(=S)N=Nc1ccc(NN=C(N)N)cc1,"inconclusive: 100 µM [inhibitor, partial curve, poor fit]",–
O=C(Oc1cc(-c2ccccc2)no1)c1ccc(Cl)cc1,active: 31.6 µM,–
COc1ccccc1C(=O)Nc1ccc2oc(-c3ccc(Cl)cc3)nc2c1,"inconclusive: 79.4 µM [inhibitor, partial curve, poor fit]",–
CCCn1c2ccccc2c2cnn(CC(=O)NCCc3ccc(C)cc3)c(=O)c21,"inconclusive: 141 µM [inhibitor, partial curve, poor fit]",–
Cc1ccc(Oc2nc3ccccc3n3cccc23)cc1,"inconclusive: 100 µM [inhibitor, single point]",–
CCCCNC(=O)C1c2ccccc2OCC(=O)N1Cc1ccc2c(c1)OCO2 (configuration not stated),"inconclusive: 1.41 µM [inhibitor, partial curve, poor fit]",–
Cc1nc(C(=O)NCC(=O)O)c(O)c2ccc(Oc3ccccc3)cc12,"inconclusive: 3.85 µM [inhibitor, partial curve, poor fit]",–
Cc1cc(C)n(Cc2ccc(C(=O)N/N=C/c3ccc(-c4ccc([N+](=O)[O-])cc4)o3)o2)n1,"inconclusive: 100 µM [inhibitor, single point]",–
COc1ccc(Cc2c(C(C)(C)C)nc3ccc(C)cn23)c(C)c1,"inconclusive: 35.5 µM [inhibitor, partial curve, poor fit]",–
O/N=C(/Cc1ccccc1)c1ccc(O)cc1O,inactive,–

SMILES,Potency,"activity change, negative = inhibition"
O=C(c1ccccc1OCc1ccccc1)N1CCNCC(O)C1 (configuration not stated),inactive,–
CC(=O)Oc1cccc(N2C(=O)C3CC=CCC3C2=O)c1 (configuration not stated),inactive,–
CCc1cc2c(=O)n(-c3ccccc3)c(=S)[nH]c2s1,"inconclusive: 39.8 µM [inhibitor, partial curve, poor fit]",–
Cc1ccc(CN2CCCn3nc(C(=O)NCC(C)c4ccccc4)cc3C2=O)cc1 (configuration not stated),"inconclusive: 89.1 µM [inhibitor, partial curve, poor fit]",–
COc1cc(C2C(C(C)=O)=C(O)C(=O)N2c2ccc(Br)cn2)ccc1O (configuration not stated),"inconclusive: 79.4 µM [inhibitor, partial curve, poor fit]",–
COc1ccc(Nc2oc(/C=C/c3ccc(OC)c(OC)c3)nc2C#N)cc1,"inconclusive: 39.8 µM [inhibitor, partial curve, poor fit]",–
O=c1c(-c2ccco2)[n+]([O-])c2ccccc2n1OCc1ccccc1[N+](=O)[O-],inactive,–
CC1Cn2c(nc3sc4c(c3c2=O)CC(C)(C)OC4)N1CCO (configuration not stated),"inconclusive: 20 µM [inhibitor, full curve, poor fit]",–
COC(=O)C(C)(Cc1ccccc1)CC(C)(CC1(C)CC(C)(C(=O)OC)OC1=O)C(=O)OC (configuration not stated),inactive,–
Cc1cc(C)c2oc(C(=O)Nc3ccc(S(=O)(=O)Nc4nccc(C)n4)cc3)cc(=O)c2c1,"inconclusive: 50.1 µM [inhibitor, partial curve, poor fit] and inconclusive: 44.7 µM [inhibitor, partial curve]",–
O=C(Cn1cnc2ccccc2c1=O)N1CCc2ccccc2C1,"inconclusive: 44.7 µM [inhibitor, single point]",–
O=C(c1ccccc1)N1CCC2(Cc3ccccc3NC2=O)C1 (configuration not stated),inactive,–
CC(C)C(C)(C#N)NC(=O)CC1CC2CCC1C2 (configuration not stated),inactive,–
COC1CCN(CC2CCCCCN2C(=O)c2ccoc2)CC1 (configuration not stated),inactive,–
O=C(NCc1ccncc1)c1cc(-c2ccc(Cl)cc2Cl)c2cccn2n1,"inconclusive: 63.1 µM [inhibitor, single point]",–
Cc1cc(-c2ccccc2)nn1-c1nc2c(c(=O)[nH]c(=O)n2C)n1C,"inconclusive: 112 µM [inhibitor, partial curve, poor fit]",–
CC(C)[C@H](NC(=O)C1CC(=O)N(c2ccc3c(c2)OCO3)C1)C(=O)NC1CCCC1 (some centres not stated),"inconclusive: 35.5 µM [inhibitor, partial curve]",–
COc1ccc(C2(CNC(=O)CCC(=O)O)CCCC2)cc1,inactive,–
COc1ccc(C(=O)c2nc3c(n2O)CCCC3)cc1OC,active: 8.91 µM,–
Cc1ncoc1C(=O)NCc1cccnc1N(C)Cc1ccccc1,"inconclusive: 56.2 µM [inhibitor, partial curve, poor fit]",–
S=c1[nH]ncn1/N=C/c1ccccc1,"inconclusive: 44.7 µM [inhibitor, partial curve, poor fit]",–

# Reformatted tab-delimited: part of the list above
SMILES	Potency	activity change, negative = inhibition
Cc1cc(C)cc(N(C)CC(=O)NC(N)=O)c1	inconclusive: 50.1 µM [inhibitor, single point]	–
COc1ccc(-n2cnc3c2NC(=O)CC3c2cc(OC)c3c(c2OC)OCO3)cc1 (configuration not stated)	inconclusive: 4.47 µM [inhibitor, full curve, poor fit]	–
CC1CCN(CCCNC(=O)CCc2nnc3n(CCc4ccccc4)c(=O)c4ccccc4n23)CC1	inactive	–
C=CCOC(=O)C1=C[C@@H](C2CCCCC2)C[C@@H](OCc2ccc(CO)cc2)O1	inconclusive: 56.2 µM [inhibitor, partial curve, poor fit]	–
COc1cccc(-n2c(CCn3nc(C)c([N+](=O)[O-])c3C)n[nH]c2=S)c1	inactive	–
COc1cccc(/C=N/NC(=O)C(=O)NCc2cccnc2)c1O	inactive	–
O=C(CSCC(O)c1ccccc1)NC(=O)NCC(F)(F)F (configuration not stated)	inconclusive: 31.6 µM [inhibitor, partial curve, poor fit]	–
O=S(=O)(NCc1ccnc(N2CCOCC2)c1)c1ccc(Cl)cc1C(F)(F)F	inactive	–
COc1ccc(-c2nc(-c3c[nH]c(C(=O)N4CCCC4)c3)cs2)cc1	inconclusive: 44.7 µM [inhibitor, partial curve, poor fit]	–
Cc1cccc(C)c1Nc1c(-c2ccc(O)cc2)nc2sccn12	active: 20 µM	–
COc1cc(NC(=O)c2nc3ccccc3nc2OC)cc(OC)c1	inconclusive: 56.2 µM [inhibitor, partial curve, poor fit]	–
CCc1ccc(/C=C2/SC(=S)N(CCCC(=O)Nc3ccccc3C(=O)O)C2=O)cc1	–	inconclusive: -44.2% [inhibitor]
